The target in the test is polycytosine (poly(C)) binding protein 1 (PCBP1) (human (endogenous in A549 and HeLa)) (UniProt Q15365). The experiment in a line: co-IP; anti-PCBP1 antibody on protein A Sepharose, endogenous proteins of A549 and HeLa lysates, immunoblot; HeLa lysates also treated with RNAse A, DNAse I or both. Background: A western blot detects proteins with antibodies after separation by electrophoresis.

Amino acid sequences for entries named in this document (tags omitted).
UniProt Q15365: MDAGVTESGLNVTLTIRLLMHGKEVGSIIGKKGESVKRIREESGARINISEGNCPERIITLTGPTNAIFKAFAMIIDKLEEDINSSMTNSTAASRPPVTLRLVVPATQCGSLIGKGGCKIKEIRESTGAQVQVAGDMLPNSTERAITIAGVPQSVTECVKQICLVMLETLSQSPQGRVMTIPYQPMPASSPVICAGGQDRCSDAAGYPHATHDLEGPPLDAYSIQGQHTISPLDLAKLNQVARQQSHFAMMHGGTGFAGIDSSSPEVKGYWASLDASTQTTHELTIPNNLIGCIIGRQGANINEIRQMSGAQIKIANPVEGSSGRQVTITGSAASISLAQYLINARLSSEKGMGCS

These are yes or no findings as the source states them, for the method shown. Binding seen in cells or lysates may run through a third protein. Some results given as binding are weak or reduced against the parent protein; the word gives no strength.

B1: DDX21, human (protein, UniProt Q9NR30 1-783)
chain: MPGKLRSDAGLESDTAMKKGETLRKQTEEKEKKEKPKSDKTEEIAEEEETVFPKAKQVKKKAEPSEVDMNSPKSKKAKKKEEPSQNDISPKTKSLRKKKEPIEKKVVSSKTKKVTKNEEPSEEEIDAPKPKKMKKEKEMNGETREKSPKLKNGFPHPEPDCNPSEAASEESNSEIEQEIPVEQKEGAFSNFPISEETIKLLKGRGVTFLFPIQAKTFHHVYSGKDLIAQARTGTGKTFSFAIPLIEKLHGELQDRKRGRAPQVLVLAPTRELANQVSKDFSDITKKLSVACFYGGTPYGGQFERMRNGIDILVGTPGRIKDHIQNGKLDLTKLKHVVLDEVDQMLDMGFADQVEEILSVAYKKDSEDNPQTLLFSATCPHWVFNVAKKYMKSTYEQVDLIGKKTQKTAITVEHLAIKCHWTQRAAVIGDVIRVYSGHQGRTIIFCETKKEAQELSQNSAIKQDAQSLHGDIPQKQREITLKGFRNGSFGVLVATNVAARGLDIPEVDLVIQSSPPKDVESYIHRSGRTGRAGRTGVCICFYQHKEEYQLVQVEQKAGIKFKRIGVPSATEIIKASSKDAIRLLDSVPPTAISHFKQSAEKLIEEKGAVEALAAALAHISGATSVDQRSLINSNVGFVTMILQCSIEMPNISYAWKELKEQLGEEIDSKVKGMVFLKGKLGVCFDVPTASVTEIQEKWHDSRRWQLSVATEQPELEGPREGYGGFRGQREGSRGFRGQRDGNRRFRGQREGSRGPRGQRSGGGNKSNRSQNKGQKRSFSKAFGQ
As for B1, the binding result is recorded as “binds”.

Source of the values: publication PMC11538862.
